The source of these data is US20150045248A1.

Sequences of proteins named here, by UniProt entry; tags and fusion partners are left off. A change or cut given only in a name is not applied to a line headed by its entry.
UniProt Q13148: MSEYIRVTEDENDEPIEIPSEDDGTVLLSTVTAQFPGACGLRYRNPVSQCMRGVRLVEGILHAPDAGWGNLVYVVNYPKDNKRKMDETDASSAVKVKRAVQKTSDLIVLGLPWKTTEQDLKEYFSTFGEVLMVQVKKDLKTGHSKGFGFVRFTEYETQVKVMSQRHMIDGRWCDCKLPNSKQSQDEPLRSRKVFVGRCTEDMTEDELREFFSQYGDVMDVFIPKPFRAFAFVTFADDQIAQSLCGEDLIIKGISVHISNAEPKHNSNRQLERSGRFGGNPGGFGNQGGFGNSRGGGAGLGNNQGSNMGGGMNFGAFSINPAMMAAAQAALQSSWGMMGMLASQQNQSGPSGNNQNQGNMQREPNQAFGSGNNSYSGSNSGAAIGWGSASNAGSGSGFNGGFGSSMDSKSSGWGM

Results are given in words; binding and its absence hold for the method and conditions named. Binding seen in cells or lysates may run through a third protein. Some results given as binding are weak or reduced against the parent protein; the word gives no strength.

In this test the target is DAP-tagged TDP-43 (wild type TAR DNA-binding protein 43) (human) (UniProt Q13148). Nature of the test: reciprocal (interchange) co-immunoprecipitation with anti-Aralar 1 and anti-Aralar 2 antibodies (FIG. 13).

B1: Aralar 1 (SLC25A12) (protein, UniProt O75746 2-678, looked up)
chain: AVKVQTTKRGDPHELRNIFLQYASTEVDGERYMTPEDFVQRYLGLYNDPNSNPKIVQLLAGVADQTKDGLISYQEFLAFESVLCAPDSMFIVAFQLFDKSGNGEVTFENVKEIFGQTIIHHHIPFNWDCEFIRLHFGHNRKKHLNYTEFTQFLQELQLEHARQAFALKDKSKSGMISGLDFSDIMVTIRSHMLTPFVEENLVSAAGGSISHQVSFSYFNAFNSLLNNMELVRKIYSTLAGTRKDVEVTKEEFAQSAIRYGQVTPLEIDILYQLADLYNASGRLTLADIERIAPLAEGALPYNLAELQRQQSPGLGRPIWLQIAESAYRFTLGSVAGAVGATAVYPIDLVKTRMQNQRGSGSVVGELMYKNSFDCFKKVLRYEGFFGLYRGLIPQLIGVAPEKAIKLTVNDFVRDKFTRRDGSVPLPAEVLAGGCAGGSQVIFTNPLEIVKIRLQVAGEITTGPRVSALNVLRDLGIFGLYKGAKACFLRDIPFSAIYFPVYAHCKLLLADENGHVGGLNLLAAGAMAGVPAASLVTPADVIKTRLQVAARAGQTTYSGVIDCFRKILREEGPSAFWKGTAARVFRSSPQFGVTLVTYELLQRWFYIDFGGLKPAGSEPTPKSRIADLPPANPDHIGGYRLATATFAGIENKFGLYLPKFKSPSVAVVQPKAAVAATQ
Regarding B1, the binding entry was “binds”.

B2: Aralar 2 (SLC25A3; citrin) (protein, UniProt Q9UJS0 2-675, looked up)
chain: AAAKVALTKRADPAELRTIFLKYASIEKNGEFFMSPNDFVTRYLNIFGESQPNPKTVELLSGVVDQTKDGLISFQEFVAFESVLCAPDALFMVAFQLFDKAGKGEVTFEDVKQVFGQTTIHQHIPFNWDSEFVQLHFGKERKRHLTYAEFTQFLLEIQLEHAKQAFVQRDNARTGRVTAIDFRDIMVTIRPHVLTPFVEECLVAAAGGTTSHQVSFSYFNGFNSLLNNMELIRKIYSTLAGTRKDVEVTKEEFVLAAQKFGQVTPMEVDILFQLADLYEPRGRMTLADIERIAPLEEGTLPFNLAEAQRQKASGDSARPVLLQVAESAYRFGLGSVAGAVGATAVYPIDLVKTRMQNQRSTGSFVGELMYKNSFDCFKKVLRYEGFFGLYRGLLPQLLGVAPEKAIKLTVNDFVRDKFMHKDGSVPLAAEILAGGCAGGSQVIFTNPLEIVKIRLQVAGEITTGPRVSALSVVRDLGFFGIYKGAKACFLRDIPFSAIYFPCYAHVKASFANEDGQVSPGSLLLAGAIAGMPAASLVTPADVIKTRLQVAARAGQTTYSGVIDCFRKILREEGPKALWKGAGARVFRSSPQFGVTLLTYELLQRWFYIDFGGVKPMGSEPVPKSRINLPAPNPDHVGGYKLAVATFAGIENKFGLYLPLFKPSVSTSKAIGGGP
As for B2, the binding entry is recorded as “binds”.
